Results reported in publication PMC6534668.
No constants are given. Whether binding was seen depends on the method and setting. Binding seen in cells or lysates may run through a third protein. Some entries that bind do so weakly or less than the wild type.

By UniProt entry, the sequences of proteins in these tests, tags left out.
UniProt P24610: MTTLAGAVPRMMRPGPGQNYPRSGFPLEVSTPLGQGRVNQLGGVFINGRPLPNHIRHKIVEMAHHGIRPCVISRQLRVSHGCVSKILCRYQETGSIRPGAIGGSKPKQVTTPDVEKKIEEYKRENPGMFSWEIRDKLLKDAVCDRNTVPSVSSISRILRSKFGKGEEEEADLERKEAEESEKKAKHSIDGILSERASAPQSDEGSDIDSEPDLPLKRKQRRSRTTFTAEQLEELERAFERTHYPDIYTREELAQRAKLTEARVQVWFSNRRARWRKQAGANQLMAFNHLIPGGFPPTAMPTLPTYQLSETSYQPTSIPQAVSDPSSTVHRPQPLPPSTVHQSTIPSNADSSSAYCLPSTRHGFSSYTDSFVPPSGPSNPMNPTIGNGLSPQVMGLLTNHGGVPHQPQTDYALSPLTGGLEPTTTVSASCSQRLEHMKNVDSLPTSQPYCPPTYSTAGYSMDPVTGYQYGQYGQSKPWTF
UniProt Q91X20: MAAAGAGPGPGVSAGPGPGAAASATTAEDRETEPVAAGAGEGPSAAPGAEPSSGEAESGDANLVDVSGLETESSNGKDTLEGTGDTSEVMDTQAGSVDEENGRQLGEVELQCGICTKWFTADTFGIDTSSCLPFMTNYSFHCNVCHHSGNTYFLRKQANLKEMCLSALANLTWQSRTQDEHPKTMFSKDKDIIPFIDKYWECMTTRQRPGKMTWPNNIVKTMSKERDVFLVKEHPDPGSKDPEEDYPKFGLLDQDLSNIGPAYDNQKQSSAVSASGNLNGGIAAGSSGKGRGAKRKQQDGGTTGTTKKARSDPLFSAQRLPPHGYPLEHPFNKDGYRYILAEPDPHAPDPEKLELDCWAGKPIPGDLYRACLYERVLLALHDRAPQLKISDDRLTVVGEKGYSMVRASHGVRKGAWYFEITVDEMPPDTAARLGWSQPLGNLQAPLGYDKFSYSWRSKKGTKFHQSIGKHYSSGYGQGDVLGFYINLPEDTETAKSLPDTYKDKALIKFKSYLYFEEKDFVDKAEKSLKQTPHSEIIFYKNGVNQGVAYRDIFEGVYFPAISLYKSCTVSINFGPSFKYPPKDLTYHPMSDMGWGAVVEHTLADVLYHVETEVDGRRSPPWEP
UniProt P47239: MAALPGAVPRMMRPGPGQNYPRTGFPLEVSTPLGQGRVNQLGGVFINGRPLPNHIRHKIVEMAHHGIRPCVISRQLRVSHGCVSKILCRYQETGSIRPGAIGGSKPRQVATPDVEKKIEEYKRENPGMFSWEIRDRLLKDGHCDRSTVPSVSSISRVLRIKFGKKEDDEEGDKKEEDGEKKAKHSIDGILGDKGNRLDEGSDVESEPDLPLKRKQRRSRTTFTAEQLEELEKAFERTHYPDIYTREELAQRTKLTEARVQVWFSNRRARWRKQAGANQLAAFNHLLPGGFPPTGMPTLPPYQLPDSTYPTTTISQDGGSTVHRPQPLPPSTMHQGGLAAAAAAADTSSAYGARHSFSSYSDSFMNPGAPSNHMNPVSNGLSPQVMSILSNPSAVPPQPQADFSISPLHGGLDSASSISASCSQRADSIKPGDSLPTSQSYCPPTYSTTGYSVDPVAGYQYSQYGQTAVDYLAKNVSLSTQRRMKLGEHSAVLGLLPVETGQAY

T1: LIM-domain binding protein 1 (LDB1) (mouse (endogenous in mouse ES cell-derived EBs)) (UniProt P70662)
T1 sequence: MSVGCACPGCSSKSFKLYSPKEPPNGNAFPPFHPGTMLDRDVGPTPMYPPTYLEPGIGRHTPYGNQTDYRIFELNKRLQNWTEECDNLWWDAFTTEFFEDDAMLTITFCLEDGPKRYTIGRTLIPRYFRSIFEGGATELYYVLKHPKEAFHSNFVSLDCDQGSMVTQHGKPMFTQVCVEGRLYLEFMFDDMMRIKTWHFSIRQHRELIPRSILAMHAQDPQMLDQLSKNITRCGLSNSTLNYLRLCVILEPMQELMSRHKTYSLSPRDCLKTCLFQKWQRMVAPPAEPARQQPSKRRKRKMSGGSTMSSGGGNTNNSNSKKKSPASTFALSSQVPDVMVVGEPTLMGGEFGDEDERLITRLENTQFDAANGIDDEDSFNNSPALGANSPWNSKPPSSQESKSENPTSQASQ


What was measured:
PAX3HaFlag = PAX3HaFlag (UniProt P24610); experiment: co-IP; FLAG-IP of PAX3HaFlag from nuclear extracts of 1-day induced EBs, western blot of the partners
[1] = target: T1, LIM-domain binding protein 1 (LDB1) (mouse (endogenous in mouse ES cell-derived EBs)); experiment: co-IP; immunoprecipitation with rabbit anti-LDB1 antibody and Protein A sepharose beads from nuclear extracts of iPax3 and iPax7 lines, western blot

Molecule	binding (PAX3HaFlag)	binding [1]
ASH2L (from UniProt Q91X20 1-623)	binds	binds
LIM-domain binding protein 1 (LDB1) (protein, UniProt P70662 1-411) MSVGCACPGCSSKSFKLYSPKEPPNGNAFPPFHPGTMLDRDVGPTPMYPPTYLEPGIGRHTPYGNQTDYRIFELNKRLQNWTEECDNLWWDAFTTEFFEDDAMLTITFCLEDGPKRYTIGRTLIPRYFRSIFEGGATELYYVLKHPKEAFHSNFVSLDCDQGSMVTQHGKPMFTQVCVEGRLYLEFMFDDMMRIKTWHFSIRQHRELIPRSILAMHAQDPQMLDQLSKNITRCGLSNSTLNYLRLCVILEPMQELMSRHKTYSLSPRDCLKTCLFQKWQRMVAPPAEPARQQPSKRRKRKMSGGSTMSSGGGNTNNSNSKKKSPASTFALSSQVPDVMVVGEPTLMGGEFGDEDERLITRLENTQFDAANGIDDEDSFNNSPALGANSPWNSKPPSSQESKSENPTSQASQ	binds	–

Second part, the molecule after the results:

binding (PAX3HaFlag)	binding [1]	Molecule
–	binds	PAX7 (from UniProt P47239 1-503)
–	binds	PAX3 (from UniProt P24610 1-479)
